The test addresses CD47 (integrin-associated protein), endogenous in U251 cells (human (endogenous in U251)) (UniProt Q08722). Briefly: affinity purification with mass spectrometry; mass spectrum analyses of immunoprecipitated CD47; cells not stated for this experiment.

The chains behind the UniProt entries cited, without tags or fusion partners. Residues count along the entry.
UniProt Q08722, residues 19-323: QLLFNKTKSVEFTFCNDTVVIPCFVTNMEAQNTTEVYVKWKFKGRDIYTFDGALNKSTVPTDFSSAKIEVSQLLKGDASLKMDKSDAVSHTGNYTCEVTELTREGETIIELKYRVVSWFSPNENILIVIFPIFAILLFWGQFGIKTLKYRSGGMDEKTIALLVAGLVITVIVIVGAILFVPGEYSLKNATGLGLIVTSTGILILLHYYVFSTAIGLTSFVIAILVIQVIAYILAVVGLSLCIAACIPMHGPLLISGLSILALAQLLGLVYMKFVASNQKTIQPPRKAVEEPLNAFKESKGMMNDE
UniProt P19474: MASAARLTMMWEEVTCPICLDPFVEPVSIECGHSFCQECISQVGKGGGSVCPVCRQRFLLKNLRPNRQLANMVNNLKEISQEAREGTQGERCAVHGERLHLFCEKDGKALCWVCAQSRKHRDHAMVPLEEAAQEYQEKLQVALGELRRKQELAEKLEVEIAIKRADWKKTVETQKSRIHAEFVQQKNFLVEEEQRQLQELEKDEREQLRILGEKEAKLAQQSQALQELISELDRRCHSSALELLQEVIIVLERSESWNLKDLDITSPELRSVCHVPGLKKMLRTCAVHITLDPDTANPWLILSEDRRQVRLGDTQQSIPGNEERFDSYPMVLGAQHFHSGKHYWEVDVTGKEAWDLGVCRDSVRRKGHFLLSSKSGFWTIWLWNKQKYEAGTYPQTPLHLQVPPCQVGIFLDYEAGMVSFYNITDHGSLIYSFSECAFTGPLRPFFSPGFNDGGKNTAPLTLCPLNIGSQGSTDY

These are yes or no findings as the source states them, for the method shown. In cells and extracts the contact can be indirect. Here binding means that the protein was enriched with, or labelled near, the bait; the list need not be complete.

Regarding “TRIM21 (tripartite motif-containing protein 21), endogenous in U251 cells (from UniProt P19474 1-475) (enzyme)”, the binding result is listed as “binds”.

The values are drawn from PMC10520678.
